# Laboratory results as given in PubChem BioAssay AID1508600 (Functional Genomics Laboratory (NCATS/FGL), 2020).
# The campaign covered roughly 53,000 sequences. About 3,700 (7%) were called active.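 How the source made its calls: active means gene knockdowns whose robust z-score for IL-1 alpha signal is at least 2 or at most -2, so actives lie on both sides; inactive means the rest.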 The list shows a part of the results.
# Test: Components of the Cytosolic LPS Sensing Pathway: Gene Identification via Genome-wide siRNA Screen;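 further: robust z of the log signal after scaling to non-targeting control siRNA wells of the plate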
# Conditions: RAW264.7 macrophages, IL-1a HTRF, actives lie on both sides, screened at 100 nM (by protocol), cells primed 5 h with Pam3CSK4 first
# How it was run: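 RAW264.7; siRNA 100 nM final, RNAiMAX, 48h 37 degrees C; Pam3CSK4 5 h; LipidA + TransIT-TKO 24 h; IL-1a HTRF; CellTiter-Glo viability; robust z vs negative-control median.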
row,Sequence,z-score
1,GGGACAAUUCUGGAUUAAATT against 9330155M09Rik,inactive: -0.639
2,GGGCCUUGAAUCUUUGUACTT against Galt,inactive: -0.284
3,GCAGUACGCUGCAUUUAAATT against Mtrf1l,inactive: 0.551
4,GCACAGUCCAUGAAUCAGATT against 4930432K21Rik,inactive: -0.639
5,CCGGCUAUGAAGAUGAGUATT against Cox6a1,active: 3.21
6,GGAGGAGCUACUGAAAGAUTT against Wbp1l,inactive: -0.717
7,GUGGUUUGCUACCCAGCAUTT against Ear6,inactive: 0.281
8,CGGAUGAAUUCCAGCUUCATT against Vdac1,inactive: -1.35
9,CCAUCUCGCUACCAUGCAATT against Hmbox1,inactive: -1.8
10,GCUACUCAUGCUAGAUGACTT against Gba,inactive: -1.28
11,GCCUGUGUGAUGCAACAGGTT against Ifna5,inactive: -0.344
12,GGAGAACUUCUUAUUCAGATT against Cfap161,inactive: 0.494
13,CGAACGUGAGCUACUGUGGTT against Cacnb4,inactive: -1.19
14,UUCUUGACAGCUGGAAGAGTT against Irgc1,inactive: 0.12
15,CCAUCUGGCACUUCAACAUTT against Csnk1g1,inactive: -1.03
16,GCCUCUGAACGGUUUGUAATT against Leo1,inactive: 0.829
17,GCUCUUAUGUUUAAUAUGGTT against Mrps2,inactive: -0.483
18,GGACGAUAGGACCCAAAGGTT against Sh3tc1,inactive: 0.668
19,GUCUUCCCUCAUCCUUUGATT against Cox8a,inactive: 0.902
20,GGUUUUAGGAUCCUAGAAGTT against Ap1s1,inactive: 0.957
21,CCUAUAGCAAUGGCAGCAGTT against Pkn1,inactive: -1.66
22,GGUUUUGACAUCACAUUCUTT against Mtfr2,inactive: 1.34
23,UGAAUAAGGUGUGGUGCUCTT against Vmn1r148,inactive: 0.607

row,Sequence,z-score
1,GGAUUUUCACCAACAGCCUTT against Gh,inactive: 0.046
2,GGAUACACUGUUUGAAUGUTT against Cks1b,inactive: 0.00229
3,GGAAAGAGGGAAACUAAUUTT against Abhd17a,inactive: -0.694
4,CCGAGUGGUACUUCUGUAUTT against Ift172,inactive: -0.646
5,GGCAAGAAUGUUGUCCACCTT against Dnaja4,inactive: 0.242
6,GGAAGAUAGUGCGAUCCAATT against Adcy5,inactive: -0.655
7,CCUGUAAAGUCUAAAUAACTT against Tatdn1,inactive: -0.581
8,CCUCUGAGUGGAACACCUATT against Sfr1,active: -3.54
9,CCCACCAGUUGUCAUGAAUTT against Cnih3,inactive: -0.513
10,GGUUACUGCUCUCAUGUACTT against Olfr247,inactive: -1.28
11,CGGGCUCUUUGACAGUUCATT against Ppt2,inactive: -1.73
12,GCGGCCUCUUGAAUGAUUCTT against Ccndbp1,active: 2.16
13,GCGCAUCCAGUGGUCCUUUTT against Trpv5,inactive: 0.353
14,GGAUAUUGAUUGCUUUGUUTT against Uox,inactive: 1.41
15,CCUACUCUUUUCAUUGACCTT against Cxcr1,inactive: 0.108
16,GGAAGUCAUUAUGUGAUCCTT against Nfyb,inactive: -0.404
17,GGCCACGGACAUUUGCAUGTT against Plekhf1,inactive: 0.348
18,GGCUUUAUCAGAUCCAACCTT against Tmem108,active: 2.47
19,GGACAGAGGCGAUAGAAUCTT against Pou6f1,inactive: -0.575
20,GGCAAAAACAUGAUUCUCUTT against Hjv,inactive: -0.272
21,GGCUUUGAGCCUUAGCCUATT against Gm14461,inactive: -0.516
22,CCUGGUCAUUAGGCUAGGATT against Tymp,inactive: -0.453
23,GGAAGCUUCUGAGAGUAAATT against 4930503E14Rik,inactive: 0.13

# 15 neighbouring records already listed, for reference:
row,Sequence,z-score
3,GGAAAGAGGGAAACUAAUUTT against Abhd17a,inactive: -0.694
4,CCGAGUGGUACUUCUGUAUTT against Ift172,inactive: -0.646
5,GGCAAGAAUGUUGUCCACCTT against Dnaja4,inactive: 0.242
6,GGAAGAUAGUGCGAUCCAATT against Adcy5,inactive: -0.655
7,CCUGUAAAGUCUAAAUAACTT against Tatdn1,inactive: -0.581
8,CCUCUGAGUGGAACACCUATT against Sfr1,active: -3.54
9,CCCACCAGUUGUCAUGAAUTT against Cnih3,inactive: -0.513
10,GGUUACUGCUCUCAUGUACTT against Olfr247,inactive: -1.28
11,CGGGCUCUUUGACAGUUCATT against Ppt2,inactive: -1.73
12,GCGGCCUCUUGAAUGAUUCTT against Ccndbp1,active: 2.16
13,GCGCAUCCAGUGGUCCUUUTT against Trpv5,inactive: 0.353
14,GGAUAUUGAUUGCUUUGUUTT against Uox,inactive: 1.41
15,CCUACUCUUUUCAUUGACCTT against Cxcr1,inactive: 0.108
16,GGAAGUCAUUAUGUGAUCCTT against Nfyb,inactive: -0.404
17,GGCCACGGACAUUUGCAUGTT against Plekhf1,inactive: 0.348

# The list goes on:

row,Sequence,z-score
1,CAUCAUUGAACAACUUGACTT against Olfr1466,inactive: 0.138
2,GGGUCAAGCAGUGUAAAGATT against Dnajb12,inactive: -0.529
3,GGAAAUAGACACCAAGAGCTT against Mau2,inactive: -1.64
4,GGAGAAAGCAGAGACAAUGTT against Tnfrsf13c,inactive: -0.546
5,GGUUCCAUCUGUCCUACUUTT against Actr10,inactive: 0.000211
6,CCACACAAUGGCCAAGUAGTT against Ppp1r16a,inactive: -0.282
7,GGCAGAGAUGCUUUAUAAATT against Hars2,inactive: -0.485
8,GCCCAACAGCUACACCUUATT against Clec2e,inactive: -0.508
9,CCUGUCUUUGAACGAUGUGTT against Olfr1279,inactive: -0.633
10,GCUUAACUGCCAUUCUGAATT against Fn3krp,inactive: -0.642
11,GGAAAACCAGAUAAAGAAATT against Cog1,inactive: 0.676
12,GGAUGUACUUGACACCCAGTT against Cyfip1,inactive: -0.118
13,CCUAUUACAAUGUACGUGUTT against Ssh3,inactive: 0.491
14,GCUUAUGAUGAACAAGCCCTT against Clec4b2,inactive: -0.632
15,GCCAUACUACAUCACAGAGTT against S100a7a,inactive: 0.77
16,GGCCUAGCAAUUCUUGAGCTT against Gm5087,inactive: -0.18
17,GGAGUGAUGUCUUCACUGATT against Snx31,inactive: -1.12
18,GGCUUUAUGACAUCAUUUGTT against Rab5if,inactive: 1.86
19,CGAAACCUGUUCUUCUGCCTT against Serpinb8,inactive: 0.852
20,GGAAUAAGAUCUGGUAUGATT against Idh2,inactive: 0.288
21,GCUCUAUAUCUCCUUAGCCTT against Olfr450,inactive: -0.64
22,GGCUGAUCAUCCAGUCCAATT against Jund,inactive: -0.975
